Laboratory results: the supplement of paper PMC7666118
The other results are listed elsewhere or left out.

The chains behind the UniProt entries cited, without tags or fusion partners. Where a name states a change or a piece, a line headed by the entry shows the natural chain unless it says otherwise.
UniProt Q00796: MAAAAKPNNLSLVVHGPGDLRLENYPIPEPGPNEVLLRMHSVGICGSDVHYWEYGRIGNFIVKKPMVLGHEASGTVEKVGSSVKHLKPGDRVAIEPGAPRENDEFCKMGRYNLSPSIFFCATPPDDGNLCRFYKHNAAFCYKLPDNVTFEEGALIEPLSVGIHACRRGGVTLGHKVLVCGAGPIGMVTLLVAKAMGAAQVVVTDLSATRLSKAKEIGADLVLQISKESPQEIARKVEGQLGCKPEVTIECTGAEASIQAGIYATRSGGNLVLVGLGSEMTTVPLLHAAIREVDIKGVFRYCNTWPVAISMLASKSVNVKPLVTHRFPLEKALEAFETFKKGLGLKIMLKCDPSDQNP
UniProt Q15831: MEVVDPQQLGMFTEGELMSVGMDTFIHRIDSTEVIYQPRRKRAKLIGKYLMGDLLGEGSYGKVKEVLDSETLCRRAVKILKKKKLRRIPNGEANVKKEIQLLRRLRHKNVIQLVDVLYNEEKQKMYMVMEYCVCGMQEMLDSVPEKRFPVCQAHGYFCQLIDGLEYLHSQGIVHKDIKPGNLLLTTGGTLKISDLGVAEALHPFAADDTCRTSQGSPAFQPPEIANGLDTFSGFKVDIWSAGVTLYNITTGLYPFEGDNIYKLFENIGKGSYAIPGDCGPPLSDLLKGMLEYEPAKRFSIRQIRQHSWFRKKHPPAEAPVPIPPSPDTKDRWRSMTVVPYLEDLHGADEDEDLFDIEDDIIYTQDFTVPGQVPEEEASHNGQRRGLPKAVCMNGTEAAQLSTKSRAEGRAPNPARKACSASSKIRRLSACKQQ
UniProt Q12772: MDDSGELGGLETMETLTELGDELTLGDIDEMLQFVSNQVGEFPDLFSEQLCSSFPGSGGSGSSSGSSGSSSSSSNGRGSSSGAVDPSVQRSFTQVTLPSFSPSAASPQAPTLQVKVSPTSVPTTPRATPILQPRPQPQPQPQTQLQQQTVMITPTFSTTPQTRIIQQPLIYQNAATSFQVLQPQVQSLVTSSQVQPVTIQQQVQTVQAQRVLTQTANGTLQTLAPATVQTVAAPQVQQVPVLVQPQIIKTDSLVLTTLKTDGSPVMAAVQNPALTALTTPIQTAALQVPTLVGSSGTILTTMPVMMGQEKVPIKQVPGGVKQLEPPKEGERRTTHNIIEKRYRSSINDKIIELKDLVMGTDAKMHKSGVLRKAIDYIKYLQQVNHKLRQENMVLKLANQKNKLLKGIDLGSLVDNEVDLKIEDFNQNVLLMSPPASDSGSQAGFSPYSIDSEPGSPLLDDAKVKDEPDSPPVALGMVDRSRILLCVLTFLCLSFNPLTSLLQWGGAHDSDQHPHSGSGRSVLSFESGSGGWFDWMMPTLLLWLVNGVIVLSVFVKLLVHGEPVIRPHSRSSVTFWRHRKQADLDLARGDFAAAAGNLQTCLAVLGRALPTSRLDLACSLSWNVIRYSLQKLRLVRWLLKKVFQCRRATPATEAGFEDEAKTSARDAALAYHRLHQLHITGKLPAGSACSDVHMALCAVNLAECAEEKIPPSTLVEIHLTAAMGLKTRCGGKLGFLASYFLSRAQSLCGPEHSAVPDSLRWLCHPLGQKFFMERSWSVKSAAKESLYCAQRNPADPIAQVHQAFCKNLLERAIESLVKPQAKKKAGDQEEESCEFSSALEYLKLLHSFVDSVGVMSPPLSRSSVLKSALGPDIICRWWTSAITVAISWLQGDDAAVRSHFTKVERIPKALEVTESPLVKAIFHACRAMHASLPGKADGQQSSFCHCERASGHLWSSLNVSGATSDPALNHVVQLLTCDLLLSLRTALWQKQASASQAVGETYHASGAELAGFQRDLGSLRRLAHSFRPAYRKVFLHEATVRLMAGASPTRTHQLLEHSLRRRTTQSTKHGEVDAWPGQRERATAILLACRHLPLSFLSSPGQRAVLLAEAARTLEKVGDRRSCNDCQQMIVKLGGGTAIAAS
UniProt O60232: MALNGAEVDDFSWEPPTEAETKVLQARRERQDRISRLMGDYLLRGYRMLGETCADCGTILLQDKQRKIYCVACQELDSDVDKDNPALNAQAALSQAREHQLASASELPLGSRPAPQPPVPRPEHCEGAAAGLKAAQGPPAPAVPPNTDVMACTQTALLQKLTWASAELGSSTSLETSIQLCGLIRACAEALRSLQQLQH
UniProt Q6IN85: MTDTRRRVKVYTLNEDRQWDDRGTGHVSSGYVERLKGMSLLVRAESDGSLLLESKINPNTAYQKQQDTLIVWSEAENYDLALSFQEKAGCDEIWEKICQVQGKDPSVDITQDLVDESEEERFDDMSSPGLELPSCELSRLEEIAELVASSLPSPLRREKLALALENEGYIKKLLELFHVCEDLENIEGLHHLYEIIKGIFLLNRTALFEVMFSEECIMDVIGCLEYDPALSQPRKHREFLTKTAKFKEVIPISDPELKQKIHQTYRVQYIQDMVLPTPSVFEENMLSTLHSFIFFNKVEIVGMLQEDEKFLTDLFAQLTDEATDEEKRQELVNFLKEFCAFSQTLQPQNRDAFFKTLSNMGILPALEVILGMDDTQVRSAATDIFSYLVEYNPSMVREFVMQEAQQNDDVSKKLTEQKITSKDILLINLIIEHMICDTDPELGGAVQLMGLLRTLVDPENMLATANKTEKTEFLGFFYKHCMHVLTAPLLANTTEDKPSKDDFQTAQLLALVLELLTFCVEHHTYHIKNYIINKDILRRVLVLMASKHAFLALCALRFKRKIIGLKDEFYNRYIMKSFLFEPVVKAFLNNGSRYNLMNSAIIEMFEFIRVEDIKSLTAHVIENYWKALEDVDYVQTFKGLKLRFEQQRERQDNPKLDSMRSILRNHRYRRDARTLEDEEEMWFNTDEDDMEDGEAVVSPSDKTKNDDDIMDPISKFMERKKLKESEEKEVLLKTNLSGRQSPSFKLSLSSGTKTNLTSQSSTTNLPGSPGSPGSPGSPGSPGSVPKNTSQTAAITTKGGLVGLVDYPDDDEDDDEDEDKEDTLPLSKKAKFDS
UniProt P52630: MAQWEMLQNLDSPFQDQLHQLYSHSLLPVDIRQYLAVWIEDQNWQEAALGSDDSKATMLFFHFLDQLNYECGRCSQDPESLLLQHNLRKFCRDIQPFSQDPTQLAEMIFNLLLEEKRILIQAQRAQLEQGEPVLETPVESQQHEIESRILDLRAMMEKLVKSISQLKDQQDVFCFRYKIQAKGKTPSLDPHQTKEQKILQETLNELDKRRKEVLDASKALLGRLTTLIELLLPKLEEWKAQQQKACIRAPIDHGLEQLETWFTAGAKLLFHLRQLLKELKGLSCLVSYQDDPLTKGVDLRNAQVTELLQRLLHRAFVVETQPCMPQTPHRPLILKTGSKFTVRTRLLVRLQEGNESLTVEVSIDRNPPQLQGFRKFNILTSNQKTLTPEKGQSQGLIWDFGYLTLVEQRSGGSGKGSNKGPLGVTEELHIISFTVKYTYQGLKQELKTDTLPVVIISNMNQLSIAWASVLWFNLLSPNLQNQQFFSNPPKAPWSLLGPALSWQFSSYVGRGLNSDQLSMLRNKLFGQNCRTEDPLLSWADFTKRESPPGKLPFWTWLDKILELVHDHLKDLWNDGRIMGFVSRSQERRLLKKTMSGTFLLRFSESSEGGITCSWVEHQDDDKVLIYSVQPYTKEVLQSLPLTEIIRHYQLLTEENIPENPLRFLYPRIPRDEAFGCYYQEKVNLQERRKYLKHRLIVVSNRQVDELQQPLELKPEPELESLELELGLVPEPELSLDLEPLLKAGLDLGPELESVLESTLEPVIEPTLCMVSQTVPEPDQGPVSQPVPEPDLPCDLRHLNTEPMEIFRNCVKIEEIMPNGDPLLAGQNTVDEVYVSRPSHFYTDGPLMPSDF
UniProt P16949: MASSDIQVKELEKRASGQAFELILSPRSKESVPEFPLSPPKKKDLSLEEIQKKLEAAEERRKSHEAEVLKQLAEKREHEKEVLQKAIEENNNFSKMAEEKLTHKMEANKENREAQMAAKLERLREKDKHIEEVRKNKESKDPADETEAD
UniProt O75529: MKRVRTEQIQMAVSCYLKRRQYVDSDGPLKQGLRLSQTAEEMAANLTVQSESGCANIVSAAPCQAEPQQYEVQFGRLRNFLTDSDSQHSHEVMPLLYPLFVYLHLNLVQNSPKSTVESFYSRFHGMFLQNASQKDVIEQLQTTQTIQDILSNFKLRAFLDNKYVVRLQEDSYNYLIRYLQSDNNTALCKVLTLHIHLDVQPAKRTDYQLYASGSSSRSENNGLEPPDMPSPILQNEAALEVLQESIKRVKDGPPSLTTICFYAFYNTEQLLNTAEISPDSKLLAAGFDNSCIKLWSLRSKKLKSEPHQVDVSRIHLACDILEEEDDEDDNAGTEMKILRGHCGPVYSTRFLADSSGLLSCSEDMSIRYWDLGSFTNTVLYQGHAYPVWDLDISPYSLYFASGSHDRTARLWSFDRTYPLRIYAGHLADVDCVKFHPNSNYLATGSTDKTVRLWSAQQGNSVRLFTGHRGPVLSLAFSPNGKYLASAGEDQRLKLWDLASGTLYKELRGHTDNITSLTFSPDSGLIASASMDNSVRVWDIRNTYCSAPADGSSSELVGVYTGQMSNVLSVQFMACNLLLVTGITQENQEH
UniProt P04179: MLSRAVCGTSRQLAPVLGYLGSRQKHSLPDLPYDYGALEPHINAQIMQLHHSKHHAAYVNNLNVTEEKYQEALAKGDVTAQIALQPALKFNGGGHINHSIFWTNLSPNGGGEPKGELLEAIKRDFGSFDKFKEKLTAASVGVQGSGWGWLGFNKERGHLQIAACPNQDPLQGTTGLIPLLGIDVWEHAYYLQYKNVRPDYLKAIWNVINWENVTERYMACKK
UniProt O15056: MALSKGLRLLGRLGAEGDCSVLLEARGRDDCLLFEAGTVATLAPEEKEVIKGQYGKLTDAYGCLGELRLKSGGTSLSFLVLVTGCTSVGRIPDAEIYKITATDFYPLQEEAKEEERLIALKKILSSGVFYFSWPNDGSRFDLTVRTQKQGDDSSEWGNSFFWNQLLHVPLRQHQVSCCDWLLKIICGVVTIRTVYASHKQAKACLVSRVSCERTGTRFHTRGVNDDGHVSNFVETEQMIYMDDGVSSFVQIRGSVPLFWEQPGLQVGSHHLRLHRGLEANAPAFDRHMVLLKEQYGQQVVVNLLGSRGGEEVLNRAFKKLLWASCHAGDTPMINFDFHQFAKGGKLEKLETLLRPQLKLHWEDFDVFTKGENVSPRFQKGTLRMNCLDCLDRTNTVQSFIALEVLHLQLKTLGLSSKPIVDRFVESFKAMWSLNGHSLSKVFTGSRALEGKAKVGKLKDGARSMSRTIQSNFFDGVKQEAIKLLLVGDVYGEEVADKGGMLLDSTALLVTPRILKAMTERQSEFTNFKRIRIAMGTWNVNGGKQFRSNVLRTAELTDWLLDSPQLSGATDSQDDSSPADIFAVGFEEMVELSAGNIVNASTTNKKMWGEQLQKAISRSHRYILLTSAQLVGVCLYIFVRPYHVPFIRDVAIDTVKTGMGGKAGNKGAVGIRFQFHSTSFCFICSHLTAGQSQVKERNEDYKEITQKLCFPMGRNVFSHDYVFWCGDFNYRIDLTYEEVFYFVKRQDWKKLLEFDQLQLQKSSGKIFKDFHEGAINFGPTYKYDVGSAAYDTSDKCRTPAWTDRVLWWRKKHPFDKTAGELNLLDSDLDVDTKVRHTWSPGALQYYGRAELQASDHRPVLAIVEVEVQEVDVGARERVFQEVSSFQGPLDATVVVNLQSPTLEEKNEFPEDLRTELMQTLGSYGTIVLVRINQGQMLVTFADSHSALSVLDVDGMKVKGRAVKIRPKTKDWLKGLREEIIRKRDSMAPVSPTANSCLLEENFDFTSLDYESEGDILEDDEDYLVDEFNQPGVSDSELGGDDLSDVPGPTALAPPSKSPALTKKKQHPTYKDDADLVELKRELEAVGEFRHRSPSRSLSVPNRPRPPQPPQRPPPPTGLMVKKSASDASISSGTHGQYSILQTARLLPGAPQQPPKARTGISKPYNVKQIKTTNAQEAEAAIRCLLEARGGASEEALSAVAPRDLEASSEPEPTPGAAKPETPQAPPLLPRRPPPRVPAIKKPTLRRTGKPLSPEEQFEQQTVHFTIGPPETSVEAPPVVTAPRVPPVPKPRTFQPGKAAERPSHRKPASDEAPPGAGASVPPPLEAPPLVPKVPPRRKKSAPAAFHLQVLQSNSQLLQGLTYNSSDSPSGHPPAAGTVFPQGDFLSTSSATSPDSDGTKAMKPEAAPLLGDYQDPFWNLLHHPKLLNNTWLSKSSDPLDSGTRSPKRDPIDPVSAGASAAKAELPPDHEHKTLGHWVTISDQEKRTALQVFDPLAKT
UniProt O75486: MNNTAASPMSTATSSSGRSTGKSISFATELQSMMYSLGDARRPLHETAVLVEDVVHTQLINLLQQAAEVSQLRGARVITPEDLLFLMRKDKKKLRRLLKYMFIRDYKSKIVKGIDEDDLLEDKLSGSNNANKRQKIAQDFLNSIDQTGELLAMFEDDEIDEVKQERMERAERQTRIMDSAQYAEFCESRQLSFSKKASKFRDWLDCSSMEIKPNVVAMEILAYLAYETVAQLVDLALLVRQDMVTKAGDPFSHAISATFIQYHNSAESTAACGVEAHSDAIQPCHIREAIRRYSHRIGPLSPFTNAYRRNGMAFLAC

These targets were tested with COc1ccc(Cn2ccc3ccc(C(=O)NO)cc32)cc1 (assay: dose-dependent thermal stabilisation call (2D-TPP, DLPTP, 10% FDR) (binary (1 = stabilised)); higher = stabilised by the compound). Details: system: HL-60 intact cells; concentration range 0.04-10 µM.

| Target | dose-dependent thermal stabilisation call |
| --- | --- |
| SORD (UniProt Q00796) | inactive: 0 |
| SWAP70 (UniProt Q9UH65) | inactive: 0 |
| STK11 (UniProt Q15831) | inactive: 0 |
| STC2 (UniProt O76061) | inactive: 0 |
| SNAP29 (UniProt O95721) | inactive: 0 |
| SURF1 (UniProt Q15526) | inactive: 0 |
| SUB1 (UniProt P53999) | inactive: 0 |
| SRP54 (UniProt P61011) | inactive: 0 |
| STARD3 (UniProt Q14849) | inactive: 0 |
| ST8SIA4 (UniProt Q92187) | inactive: 0 |
| SREBF2 (UniProt Q12772) | inactive: 0 |
| SP1 (UniProt P08047) | inactive: 0 |
| SSSCA1 (UniProt O60232) | inactive: 0 |
| SVIP (UniProt Q8NHG7) | inactive: 0 |
| SMEK1 (UniProt Q6IN85) | inactive: 0 |
| STK10 (UniProt O94804) | inactive: 0 |
| STAT2 (UniProt P52630) | inactive: 0 |
| SNRPA (UniProt P09012) | inactive: 0 |
| SYVN1 (UniProt Q86TM6) | inactive: 0 |

| Target | dose-dependent thermal stabilisation call |
| --- | --- |
| STMN1 (UniProt P16949) | inactive: 0 |
| SNRNP35 (UniProt Q16560) | inactive: 0 |
| STK17B (UniProt O94768) | inactive: 0 |
| SNX12 (UniProt Q9UMY4) | inactive: 0 |
| SNX5 (UniProt Q9Y5X3) | inactive: 0 |
| TAF5L (UniProt O75529) | inactive: 0 |
| SOS2 (UniProt Q07890) | inactive: 0 |
| SUGT1 (UniProt Q9Y2Z0) | inactive: 0 |
| SMG7 (UniProt Q92540) | inactive: 0 |
| SOD2 (UniProt P04179) | inactive: 0 |
| STAM (UniProt Q92783) | inactive: 0 |
| TAF1C (UniProt Q15572) | inactive: 0 |
| SYNJ2 (UniProt O15056) | inactive: 0 |
| SMCR8 (UniProt Q8TEV9) | inactive: 0 |
| SRP19 (UniProt P09132) | inactive: 0 |
| ST13 (UniProt P50502) | inactive: 0 |
| SYK (UniProt P43405) | inactive: 0 |
| SNRNP27 (UniProt Q8WVK2) | inactive: 0 |
| SUPT3H (UniProt O75486) | inactive: 0 |

Some of the entries so far, with tabs.
Target	dose-dependent thermal stabilisation call
TAF1C (UniProt Q15572)	inactive: 0
SYNJ2 (UniProt O15056)	inactive: 0
